Taken from: PubChem BioAssay AID1259425 (University of Nebraska Medical Center, 2018)
The deposit covers about 14,000 reagents; below is an unselected part. Not all columns of the deposit are shown. The record does not give: the time to read-out.

Test: 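Find knockdowns that reproduce the gene expression pattern seen when KSR1 is lost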 (primary screen)
Cell system: HCT116 human colon cancer cells
Reagents: siRNA pool against human genes, 50 nM siRNA
Measured: 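mRNA of six signature genes measured together by branched-DNA assay after 50 nM siRNA pool, blank removed, divided by geometric mean of two housekeeping genes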
Reading the numbers: BNIP3L mRNA: higher = more BNIP3L transcript after knockdown; NDRG1 mRNA: higher = more NDRG1 transcript after knockdown

ARSB
- BNIP3L mRNA, set 1: 0.0721
- NDRG1 mRNA, set 1: 0.0702

SLC39A2
- BNIP3L mRNA, set 1: 0.0745
- NDRG1 mRNA, set 1: 0.134

MAML2
- BNIP3L mRNA, set 1: 0.118
- NDRG1 mRNA, set 1: 0.15

NLRP9
- BNIP3L mRNA, set 1: 0.103
- NDRG1 mRNA, set 1: 0.126

HTR1E
- BNIP3L mRNA, set 1: 0.0652
- NDRG1 mRNA, set 1: 0.182

ATF6B
- BNIP3L mRNA, set 1: 0.128
- NDRG1 mRNA, set 1: 0.0474

METTL16
- BNIP3L mRNA, set 1: 0.0801
- NDRG1 mRNA, set 1: 0.175

ATP2C2
- BNIP3L mRNA, set 1: 0.115
- NDRG1 mRNA, set 1: 0.144

SIK1
- BNIP3L mRNA, set 1: 0.102
- NDRG1 mRNA, set 1: 0.176

TIMCC
- BNIP3L mRNA, set 1: 0.669
- NDRG1 mRNA, set 1: 0.704

SMAD7
- BNIP3L mRNA, set 1: 0.0902
- NDRG1 mRNA, set 1: 0.0664

NAB1
- BNIP3L mRNA, set 1: 0.0966
- NDRG1 mRNA, set 1: 1.56

UGT1A1
- BNIP3L mRNA, set 1: 0.125
- NDRG1 mRNA, set 1: 0.351

TCF7
- BNIP3L mRNA, set 1: 0.103
- NDRG1 mRNA, set 1: 0.167

PLEKHO2
- BNIP3L mRNA, set 1: 0.0937
- NDRG1 mRNA, set 1: 0.15

PPIF
- BNIP3L mRNA, set 1: 0.0929
- NDRG1 mRNA, set 1: 0.131

PDXP
- BNIP3L mRNA, set 1: 0.149
- NDRG1 mRNA, set 1: 0.828

SLC2A5
- BNIP3L mRNA, set 1: 0.122
- NDRG1 mRNA, set 1: 0.154

SRPRA
- BNIP3L mRNA, set 1: 0.0793
- NDRG1 mRNA, set 1: 0.127

MTA3
- BNIP3L mRNA, set 1: 0.105
- NDRG1 mRNA, set 1: 0.13

TMPRSS4
- BNIP3L mRNA, set 1: 0.249
- NDRG1 mRNA, set 1: 0.351

ALOXE3
- BNIP3L mRNA, set 1: 0.147
- NDRG1 mRNA, set 1: 0.397

KRTAP4-12
- BNIP3L mRNA, set 1: 0.116
- NDRG1 mRNA, set 1: 0.23

GCNT1
- BNIP3L mRNA, set 1: 0.105
- NDRG1 mRNA, set 1: 0.434

CHRNA6
- BNIP3L mRNA, set 1: 0.0652
- NDRG1 mRNA, set 1: 0.221

KIF2A
- BNIP3L mRNA, set 1: 0.156
- NDRG1 mRNA, set 1: 0.136

EML2
- BNIP3L mRNA, set 1: 0.179
- NDRG1 mRNA, set 1: 0.138

MIF4GD
- BNIP3L mRNA, set 1: 0.173
- NDRG1 mRNA, set 1: 0.634

Quoted from the entries so far, 2 entries:
ALOXE3
- BNIP3L mRNA, set 1: 0.147
- NDRG1 mRNA, set 1: 0.397

KRTAP4-12
- BNIP3L mRNA, set 1: 0.116
- NDRG1 mRNA, set 1: 0.23
